Results as given in PMC6177440.
Results are given in words; binding and its absence hold for the method and conditions named. Binding seen in cells or lysates may run through a third protein.

Protein sequences, listed by entry. Tags and fused reporters are not part of them. Residues count along the entry.
UniProt P10238: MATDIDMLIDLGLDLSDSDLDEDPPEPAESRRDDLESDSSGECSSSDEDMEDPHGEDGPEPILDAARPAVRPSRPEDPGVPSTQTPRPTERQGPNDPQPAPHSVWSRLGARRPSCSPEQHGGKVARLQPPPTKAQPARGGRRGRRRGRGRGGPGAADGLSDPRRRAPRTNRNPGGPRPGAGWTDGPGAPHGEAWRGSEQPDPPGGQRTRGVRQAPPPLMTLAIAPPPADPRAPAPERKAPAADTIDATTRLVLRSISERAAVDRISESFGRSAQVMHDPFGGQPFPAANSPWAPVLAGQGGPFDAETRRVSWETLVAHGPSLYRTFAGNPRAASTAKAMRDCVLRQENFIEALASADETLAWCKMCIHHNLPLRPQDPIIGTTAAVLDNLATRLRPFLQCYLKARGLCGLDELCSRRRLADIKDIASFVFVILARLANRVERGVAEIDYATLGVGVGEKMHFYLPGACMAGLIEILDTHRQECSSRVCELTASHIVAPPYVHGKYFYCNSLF
UniProt Q96QD9, residues 177-318: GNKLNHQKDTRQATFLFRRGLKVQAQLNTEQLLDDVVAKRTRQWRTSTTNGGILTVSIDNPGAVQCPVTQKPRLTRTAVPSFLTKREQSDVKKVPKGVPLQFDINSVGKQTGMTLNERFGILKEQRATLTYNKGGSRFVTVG

Biological target: HSV-1 ICP27 (wild type, from HSV-1 KOS infection) (HSV-1 (strain KOS)) (UniProt P10238)
Experiment: co-IP; HeLa cells transfected with Flag-tagged UIF constructs, infected 24 h later with HSV-1 KOS, WRL or ΔRGG (MOI 10) for 8 h; lysates (treated or not treated with RNase) immunoprecipitated with anti-ICP27 antibody P1119 on protein-G Dynabeads; blots probed with anti-Flag

Flag-epitope tagged UIF C-terminal region (residues 177-318) (from UniProt Q96QD9 177-318) (domain or fragment)
binding: no binding
